# Test results as given in PubChem BioAssay AID2685 (National Center for Advancing Translational Sciences (NCATS), 2010).
# Some of the results follow. Further columns of the screen follow, without active or inactive calls. The list favours compounds with an active or inconclusive main result. Words in brackets tell the shape of the fitted curve; partial curves, single points and poor fits give uncertain potencies.
# Assay: qHTS Assay for Lipid Storage Modulators in Drosophila S3 Cells;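 on cell number change: cells counted by Cell Tracker Red CMTPX staining in the red channel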
# Settings: BODIPY lipid droplet fluorescence, 18-24 h; for cell number change: measured here: cell count max response, cells fed with added oleic acid
# Method in brief: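 Drosophila S3 cells got compounds at several concentrations plus oleic acid (400 uM solution). Laser-scanning cytometry with 488 nm excitation read lipid droplets at 500-530 nm and cells at 575-640 nm. Percent activity was relative to 20 uM Triacsin C.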
# [1] = measured here: lipid fluorescence (Fed channel) AC50, cells fed with added oleic acid
# [2] = measured here: cell number channel AC50, cells fed with added oleic acid
structure (smiles),measurement,setting,value
Cc1cc2ccccn2c1C(=O)c1ccc([N+](=O)[O-])cc1[N+](=O)[O-],AC50,[1],"16.4 µM [falling, partial curve]"
COc1ccc(C)cc1S(=O)(=O)N1CCN(S(=O)(=O)c2cc(C)ccc2OC)CC1,cell number change,,65.4%
same,AC50,[2],"7.31 µM [rising, partial curve, poor fit]"
same,AC50,[1],"7.31 µM [rising, partial curve]"
CCc1nc2c(cnn2-c2ccc(F)cc2)c(=O)n1-c1ccc(N2CCC(C)CC2)cc1,cell number change,,2.39%
same,AC50,[1],"4.61 µM [rising, single point]"
C=CCC1(O)C(=O)N2C(=C1C(=O)N1CCOCC1)c1ccccc1CC2(C)C (configuration not stated),cell number change,,11.9%
COC(=O)c1[nH]c2c(c1C)C(=O)CC(c1ccc(C)cc1)C2 (configuration not stated),cell number change,,19%
same,AC50,[2],"0.411 µM [rising, full curve]"
same,AC50,[1],"0.184 µM [rising, full curve, poor fit]"
CCN(CC)CCOc1nnc(-c2ccc(C)cc2)c2ccccc12,cell number change,,126%
same,AC50,[2],"13 µM [rising, partial curve]"
Brc1ccccc1-c1ccccc1,cell number change,,-7.8%
OCc1c(OCc2cccc(F)c2)ccc2ccccc12,cell number change,,-17.9%
COc1ccc(CCn2c(N3CCOCC3)nc3c2c(=O)[nH]c(=O)n3C)cc1,cell number change,,54.3%
same,AC50,[2],"2.59 µM [rising, full curve]"
CC(C)C[C@@H](CO)N1CCN(Cc2ccc([N+](=O)[O-])cc2)CCC1=O,cell number change,,4.19%
same,AC50,[1],"5.8 µM [rising, full curve]"
C=CCn1c(O)c(N=NC(=O)CNC(=O)c2cccs2)c2ccccc21,cell number change,,21%
same,AC50,[1],"6.51 µM [rising, partial curve]"
Cc1c(C(=O)Nc2ccc3c(c2)OCO3)oc2ccccc12,cell number change,,-17.1%
same,AC50,[1],"0.206 µM [falling, single point]"
CCCC(=O)Nc1nnc(SCC(=O)Nc2nc(C)cs2)s1,cell number change,,56.4%
same,AC50,[2],"14.6 µM [rising, partial curve, poor fit]"
Cc1ccccc1S(=O)(=O)N1CC(C(=O)O)=CC[C@H]1c1ccc(Cl)cc1,cell number change,,-12.2%
same,AC50,[1],"18.4 µM [rising, single point]"
Cc1ccc(-n2nnnc2SCC(=O)c2c(N)n(C3CC3)c(=O)[nH]c2=O)cc1,cell number change,,3.35%
same,AC50,[1],"9.2 µM [rising, partial curve]"
Cn1nc(CC(=O)NC2CCCCC2)c2ccccc2c1=O,cell number change,,-22.2%
CC(C)COCC(O)CCC(=O)NNC(=S)Nc1ccccc1 (configuration not stated),cell number change,,-25.4%
same,AC50,[1],"0.0291 µM [falling, full curve, poor fit]"
CN(Cc1ccccc1)C(=O)c1ccc(NC(=O)Cc2cccc(NC(=O)C3CCCN(C(=O)C4CCCCC4)C3)c2)cc1 (configuration not stated),cell number change,,13.3%
same,AC50,[2],"5.17 µM [falling, single point]"
O=C(O)c1ccc2c(c1)C(=O)N([C@]1(C(=O)O)CC1c1ccccc1)C2=O (some centres not stated),cell number change,,-27.5%
same,AC50,[1],"0.0731 µM [falling, full curve, poor fit]"
CCc1nnc(NS(=O)(=O)c2ccc(N/C=C\C(=O)c3ccc4ccccc4c3)cc2)s1,cell number change,,11%
same,AC50,[1],"10.3 µM [rising, partial curve, poor fit]"
COc1ccc([N+](=O)[O-])cc1NC(=S)NC(NC(=O)Cc1ccc(OC)c(OC)c1)C(Cl)(Cl)Cl (configuration not stated),cell number change,,-15.8%
same,AC50,[2],"0.00517 µM [falling, full curve, poor fit]"
CSc1nsc(SCC(=O)Nc2nc3ccc(C)cc3s2)n1,cell number change,,-35.1%
same,AC50,[2],"14.6 µM [falling, single point]"
COc1ccc(CNC(=O)c2ccccc2NC(=O)C2=CSCCO2)c(OC)c1,cell number change,,-18.1%
same,AC50,[2],"0.326 µM [falling, full curve, poor fit]"
same,AC50,[1],"0.58 µM [rising, single point]"
Cn1nc(-c2ccc(Cl)cc2)c2cc(C(=O)NCCN3CCOCC3)sc21,cell number change,,6.16%
same,AC50,[1],"0.731 µM [rising, full curve, poor fit]"
Cc1ccc(CN(c2ccc(C(=O)NCC3CCCO3)cc2)S(C)(=O)=O)cc1 (configuration not stated),cell number change,,105%
same,AC50,[2],"29.1 µM [rising, single point]"
same,AC50,[1],"25.9 µM [rising, single point]"
COc1ccc(-c2cc(C)no2)cc1S(=O)(=O)NCCCN1CCCCCC1,cell number change,,-13.5%
O=C(Nc1ccc(Br)cn1)c1cccc(C(=O)Nc2ccc(Br)cn2)c1,cell number change,,-38.6%
same,AC50,[2],"5.17 µM [falling, full curve]"
same,AC50,[1],"6.51 µM [falling, full curve, poor fit]"
CCOc1cccc(NC(=O)CSc2nc(C)c3c(c2C#N)CCCC3)c1,cell number change,,106%
same,AC50,[1],"3.66 µM [rising, partial curve]"
CCOc1ccc(NC(=O)Nc2ccc3nccnc3c2)cc1,cell number change,,24.8%
same,AC50,[2],"1.46 µM [rising, full curve, poor fit]"
COC(=O)C(N)Cc1ccc(O)cc1 (configuration not stated),cell number change,,-27.4%
same,AC50,[1],"0.461 µM [falling, full curve]"
O=C(O)C1C2C=CC(C2)C1C(=O)Nc1ccc2c(c1)OCCO2 (configuration not stated),cell number change,,-11.6%
COc1ccccc1C(=O)NCC(=O)OCC(=O)Nc1cccc(S(=O)(=O)N2CCCCCC2)c1,cell number change,,-37.2%
same,AC50,[2],"0.291 µM [falling, full curve]"
same,AC50,[1],"1.46 µM [falling, partial curve, poor fit]"
CN1c2ccccc2C(C)(C)C12CC(c1ccc(Cl)c(S(=O)(=O)N3CCCC3)c1)=NO2 (configuration not stated),cell number change,,-45.8%
same,AC50,[2],"14.6 µM [falling, single point]"
same,AC50,[1],"1.64 µM [rising, partial curve, poor fit]"
COc1ccc(C2C(C(=O)/C=C/c3ccco3)=C(O)C(=O)N2CCN2CCOCC2)cc1OC (configuration not stated),cell number change,,-35.7%
same,AC50,[2],"20.6 µM [falling, single point]"
same,AC50,[1],"23.1 µM [falling, single point]"
COc1ccc(/C=N/NC(=O)C2C3CCCCC32)cc1OC (configuration not stated),cell number change,,0.645%
same,AC50,[2],"0.0731 µM [falling, single point]"
same,AC50,[1],"0.092 µM [falling, partial curve, poor fit]"
C=CCC1NS(=O)(=O)OC(COC)C1C (configuration not stated),cell number change,,16.8%
same,AC50,[1],"29.1 µM [rising, single point]"
Cc1ccc(CNC(=O)CN(C(=O)C2(C)CC(=O)N=C3C=CC=CN32)c2ccc(F)cc2)cc1 (configuration not stated),cell number change,,7.21%
same,AC50,[1],"29.1 µM [falling, single point]"
COc1ccccc1C(=O)COC(=O)/C(=C/c1ccccc1)NC(C)=O,cell number change,,-25%
same,AC50,[1],"7.31 µM [falling, partial curve, poor fit]"
CCO[C@@H]1OC(C(=O)NC2CC2)=C[C@H](C(C)(C)C)[C@H]1CCCO,AC50,[1],"0.651 µM [falling, single point]"
CC(C)CNC(=O)c1cc(-c2ccc3c(c2)OCO3)on1,cell number change,,27.9%
same,AC50,[1],"10.3 µM [rising, partial curve]"
Cc1cc([N+](=O)[O-])nn1CC(=O)N/N=C/c1ccccc1F,AC50,[1],"4.61 µM [rising, full curve, poor fit]"
COc1ccc(C(=O)NC(=S)Nc2ccc([N+](=O)[O-])cc2C)cc1OC,cell number change,,-10.4%
same,AC50,[2],"2.59 µM [rising, partial curve]"
CCOC(=O)C1CCN(Cc2ccc(F)cc2F)CC1,cell number change,,-63%
same,AC50,[2],"3.66 µM [falling, full curve]"
same,AC50,[1],"3.66 µM [falling, full curve]"
CCC1=NC(c2ccc(OC)cc2OC)N(O)C1(C)C (configuration not stated),cell number change,,-61.8%
same,AC50,[2],"0.58 µM [falling, full curve]"
same,AC50,[1],"0.92 µM [falling, full curve]"
N#Cc1c(SCC(=O)N2CCOCC2)nsc1SCC(=O)N1CCOCC1,cell number change,,-189%
same,AC50,[2],"20.6 µM [falling, partial curve]"
same,AC50,[1],"0.58 µM [falling, single point]"
O=C(Nc1ccc(N2C(=O)C3CCCCC3C2=O)cc1Cl)c1cccs1 (configuration not stated),AC50,[2],"0.731 µM [rising, single point]"
O=C(CN1C(=O)NC2(CCCCC2)C1=O)NNC(=O)C1CC1,cell number change,,1.95%
same,AC50,[1],"0.58 µM [falling, full curve]"
O=C(OCC(=O)N1CCN(S(=O)(=O)c2ccccc2)CC1)c1ccc([N+](=O)[O-])o1,cell number change,,-6.64%
CCC(C)CCN1CCN=C1Nc1ccccc1 (configuration not stated),cell number change,,-14.5%
same,AC50,[1],"29.1 µM [falling, single point]"
CC(=O)C(C(C)=O)c1c(Cl)c(O)c(O)c2c(C(=O)c3ccccc3)coc12,cell number change,,-19.9%
same,AC50,[1],"29.1 µM [falling, single point]"
COc1ccccc1NC(=O)COC(=O)c1c[nH]c2ccccc12,cell number change,,31.9%
same,AC50,[2],"1.16 µM [rising, full curve, poor fit]"
CCOc1ccc(C(=O)Nc2ccccc2C(=O)O)cc1,cell number change,,-3.68%
same,AC50,[1],"2.59 µM [rising, partial curve]"
COc1ccc(N2C(=O)CC(NCc3cccc(F)c3)C2=O)cc1 (configuration not stated),cell number change,,-34.1%
same,AC50,[2],"2.59 µM [falling, partial curve, poor fit]"
same,AC50,[1],"0.651 µM [falling, single point]"
COc1ccc(/C=C/C(=O)Nc2c(C)nn(C)c2C)cc1COc1ccc(Br)cc1,cell number change,,-58.9%
same,AC50,[2],"9.2 µM [falling, partial curve]"
same,AC50,[1],"10.3 µM [falling, partial curve]"
COc1ccc(C2Nc3cccc4cccc(c34)N2)cc1,cell number change,,-14%
same,AC50,[1],"0.00461 µM [falling, full curve, poor fit]"
CCOc1ccc(NC(=S)N2c3ccccc3CC2C)cc1 (configuration not stated),AC50,[1],"0.58 µM [rising, single point]"
COc1ccc(F)cc1S(=O)(=O)NC1CCCC1,cell number change,,-25.6%
C=CCOC(=O)C1=C(C)NC(=O)NC1c1ccc(Cl)cc1 (configuration not stated),cell number change,,-11.5%
same,AC50,[1],"0.00461 µM [falling, full curve, poor fit]"

# Another view of some results above:
structure (smiles)	measurement	setting	value
CSc1nsc(SCC(=O)Nc2nc3ccc(C)cc3s2)n1	AC50	[2]	14.6 µM [falling, single point]
COc1ccc(CNC(=O)c2ccccc2NC(=O)C2=CSCCO2)c(OC)c1	cell number change		-18.1%
same	AC50	[2]	0.326 µM [falling, full curve, poor fit]
same	AC50	[1]	0.58 µM [rising, single point]
Cn1nc(-c2ccc(Cl)cc2)c2cc(C(=O)NCCN3CCOCC3)sc21	cell number change		6.16%
same	AC50	[1]	0.731 µM [rising, full curve, poor fit]
